These results are taken from PMC7450955.

This assay has as its target APOL1-B3-FLAG (wild type, G0) (human). Briefly: affinity purification with mass spectrometry; proteins coprecipitated with APOL1-B3-FLAG from APOL1-B3-FLAG stably transfected HeLa cells, analysed by mass spectrometry.

No constants are given. Whether binding was seen depends on the method and setting. In cells and extracts the contact can be indirect. These calls come from enrichment with a bait or labelling near it, and not all partners need be listed.

B1: NLRP12 (endogenous, HeLa) (protein, UniProt P59046 1-1061)
chain: MLRTAGRDGLCRLSTYLEELEAVELKKFKLYLGTATELGEGKIPWGSMEKAGPLEMAQLLITHFGPEEAWRLALSTFERINRKDLWERGQREDLVRDTPPGGPSSLGNQSTCLLEVSLVTPRKDPQETYRDYVRRKFRLMEDRNARLGECVNLSHRYTRLLLVKEHSNPMQVQQQLLDTGRGHARTVGHQASPIKIETLFEPDEERPEPPRTVVMQGAAGIGKSMLAHKVMLDWADGKLFQGRFDYLFYINCREMNQSATECSMQDLIFSCWPEPSAPLQELIRVPERLLFIIDGFDELKPSFHDPQGPWCLCWEEKRPTELLLNSLIRKKLLPELSLLITTRPTALEKLHRLLEHPRHVEILGFSEAERKEYFYKYFHNAEQAGQVFNYVRDNEPLFTMCFVPLVCWVVCTCLQQQLEGGGLLRQTSRTTTAVYMLYLLSLMQPKPGAPRLQPPPNQRGLCSLAADGLWNQKILFEEQDLRKHGLDGEDVSAFLNMNIFQKDINCERYYSFIHLSFQEFFAAMYYILDEGEGGAGPDQDVTRLLTEYAFSERSFLALTSRFLFGLLNEETRSHLEKSLCWKVSPHIKMDLLQWIQSKAQSDGSTLQQGSLEFFSCLYEIQEEEFIQQALSHFQVIVVSNIASKMEHMVSSFCLKRCRSAQVLHLYGATYSADGEDRARCSAGAHTLLVQLPERTVLLDAYSEHLAAALCTNPNLIELSLYRNALGSRGVKLLCQGLRHPNCKLQNLRLKRCRISSSACEDLSAALIANKNLTRMDLSGNGVGFPGMMLLCEGLRHPQCRLQMIQLRKCQLESGACQEMASVLGTNPHLVELDLTGNALEDLGLRLLCQGLRHPVCRLRTLWLKICRLTAAACDELASTLSVNQSLRELDLSLNELGDLGVLLLCEGLRHPTCKLQTLRLGICRLGSAACEGLSVVLQANHNLRELDLSFNDLGDWGLWLLAEGLQHPACRLQKLWLDSCGLTAKACENLYFTLGINQTLTDLYLTNNALGDTGVRLLCKRLSHPGCKLRVLWLFGMDLNKMTHSRLAALRVTKPYLDIGC
As for B1, the binding entry is reported as “binds”.
